Reference: doi:10.1101/2025.08.19.670962, “Structural basis for binding of RILPL1 to TMEM55B reveals a lysosomal platform for adaptor assembly through a conserved TBM motif” (bioRxiv, 2025)

Chains of the proteins cited; added tags and fusions are not shown. Lines headed by an entry give the natural chain unless they say otherwise; changes in a name come on top. A line that says so, or that is headed by a name, gives the form on record, which may keep a tag or linker.
Halo-TMEM55B R151E (Q86T03, form named): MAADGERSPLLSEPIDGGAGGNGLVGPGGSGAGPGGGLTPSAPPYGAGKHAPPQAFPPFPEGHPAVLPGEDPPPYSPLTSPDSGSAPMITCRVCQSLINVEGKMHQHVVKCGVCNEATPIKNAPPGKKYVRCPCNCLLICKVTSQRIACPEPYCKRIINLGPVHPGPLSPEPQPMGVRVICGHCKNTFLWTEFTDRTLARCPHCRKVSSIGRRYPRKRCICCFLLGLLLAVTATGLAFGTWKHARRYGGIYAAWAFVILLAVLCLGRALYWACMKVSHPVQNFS
Halo-TMEM55B (Q86T03, form named): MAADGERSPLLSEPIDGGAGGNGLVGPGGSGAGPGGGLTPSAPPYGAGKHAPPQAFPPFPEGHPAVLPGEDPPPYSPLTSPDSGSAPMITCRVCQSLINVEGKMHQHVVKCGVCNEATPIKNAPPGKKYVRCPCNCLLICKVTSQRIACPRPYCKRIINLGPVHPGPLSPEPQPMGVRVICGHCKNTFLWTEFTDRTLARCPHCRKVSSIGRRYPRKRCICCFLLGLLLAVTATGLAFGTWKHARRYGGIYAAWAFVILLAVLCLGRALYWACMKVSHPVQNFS
UniProt Q9H3P7: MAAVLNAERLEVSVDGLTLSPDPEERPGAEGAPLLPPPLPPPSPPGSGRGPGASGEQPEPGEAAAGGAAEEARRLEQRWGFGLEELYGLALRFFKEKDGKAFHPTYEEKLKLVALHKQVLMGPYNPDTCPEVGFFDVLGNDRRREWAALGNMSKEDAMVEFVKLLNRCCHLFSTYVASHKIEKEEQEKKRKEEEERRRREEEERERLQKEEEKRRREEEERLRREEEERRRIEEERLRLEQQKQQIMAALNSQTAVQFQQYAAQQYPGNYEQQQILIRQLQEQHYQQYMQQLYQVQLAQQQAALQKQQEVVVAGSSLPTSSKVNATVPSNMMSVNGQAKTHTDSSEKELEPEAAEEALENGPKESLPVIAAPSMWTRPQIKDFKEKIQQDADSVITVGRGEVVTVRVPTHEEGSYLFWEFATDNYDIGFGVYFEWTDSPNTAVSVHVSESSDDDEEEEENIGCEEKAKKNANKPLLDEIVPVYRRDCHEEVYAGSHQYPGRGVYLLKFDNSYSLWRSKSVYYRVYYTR
UniProt Q01968: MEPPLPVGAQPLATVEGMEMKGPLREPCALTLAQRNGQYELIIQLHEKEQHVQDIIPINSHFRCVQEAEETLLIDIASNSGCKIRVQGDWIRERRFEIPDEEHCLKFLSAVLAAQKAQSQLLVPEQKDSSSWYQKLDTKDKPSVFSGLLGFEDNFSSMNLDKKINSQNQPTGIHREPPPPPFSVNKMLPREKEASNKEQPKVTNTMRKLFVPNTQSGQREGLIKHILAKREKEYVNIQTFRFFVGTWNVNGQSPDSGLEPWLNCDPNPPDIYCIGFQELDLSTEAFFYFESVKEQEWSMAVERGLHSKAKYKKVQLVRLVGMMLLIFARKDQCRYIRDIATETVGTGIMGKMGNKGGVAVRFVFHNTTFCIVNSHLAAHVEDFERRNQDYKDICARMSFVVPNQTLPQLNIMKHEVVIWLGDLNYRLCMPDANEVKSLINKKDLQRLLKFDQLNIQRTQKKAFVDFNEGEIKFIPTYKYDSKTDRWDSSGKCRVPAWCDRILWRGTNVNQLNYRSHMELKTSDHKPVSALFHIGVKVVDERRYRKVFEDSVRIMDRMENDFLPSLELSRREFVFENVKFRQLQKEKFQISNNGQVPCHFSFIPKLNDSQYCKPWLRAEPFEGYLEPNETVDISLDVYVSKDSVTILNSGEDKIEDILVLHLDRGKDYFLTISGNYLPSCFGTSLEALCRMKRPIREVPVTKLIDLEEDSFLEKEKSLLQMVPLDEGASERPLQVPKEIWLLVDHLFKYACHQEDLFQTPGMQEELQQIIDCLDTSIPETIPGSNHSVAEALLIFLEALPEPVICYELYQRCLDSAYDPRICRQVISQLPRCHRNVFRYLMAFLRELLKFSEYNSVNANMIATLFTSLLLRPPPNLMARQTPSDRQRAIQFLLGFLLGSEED
UniProt Q9P2E3: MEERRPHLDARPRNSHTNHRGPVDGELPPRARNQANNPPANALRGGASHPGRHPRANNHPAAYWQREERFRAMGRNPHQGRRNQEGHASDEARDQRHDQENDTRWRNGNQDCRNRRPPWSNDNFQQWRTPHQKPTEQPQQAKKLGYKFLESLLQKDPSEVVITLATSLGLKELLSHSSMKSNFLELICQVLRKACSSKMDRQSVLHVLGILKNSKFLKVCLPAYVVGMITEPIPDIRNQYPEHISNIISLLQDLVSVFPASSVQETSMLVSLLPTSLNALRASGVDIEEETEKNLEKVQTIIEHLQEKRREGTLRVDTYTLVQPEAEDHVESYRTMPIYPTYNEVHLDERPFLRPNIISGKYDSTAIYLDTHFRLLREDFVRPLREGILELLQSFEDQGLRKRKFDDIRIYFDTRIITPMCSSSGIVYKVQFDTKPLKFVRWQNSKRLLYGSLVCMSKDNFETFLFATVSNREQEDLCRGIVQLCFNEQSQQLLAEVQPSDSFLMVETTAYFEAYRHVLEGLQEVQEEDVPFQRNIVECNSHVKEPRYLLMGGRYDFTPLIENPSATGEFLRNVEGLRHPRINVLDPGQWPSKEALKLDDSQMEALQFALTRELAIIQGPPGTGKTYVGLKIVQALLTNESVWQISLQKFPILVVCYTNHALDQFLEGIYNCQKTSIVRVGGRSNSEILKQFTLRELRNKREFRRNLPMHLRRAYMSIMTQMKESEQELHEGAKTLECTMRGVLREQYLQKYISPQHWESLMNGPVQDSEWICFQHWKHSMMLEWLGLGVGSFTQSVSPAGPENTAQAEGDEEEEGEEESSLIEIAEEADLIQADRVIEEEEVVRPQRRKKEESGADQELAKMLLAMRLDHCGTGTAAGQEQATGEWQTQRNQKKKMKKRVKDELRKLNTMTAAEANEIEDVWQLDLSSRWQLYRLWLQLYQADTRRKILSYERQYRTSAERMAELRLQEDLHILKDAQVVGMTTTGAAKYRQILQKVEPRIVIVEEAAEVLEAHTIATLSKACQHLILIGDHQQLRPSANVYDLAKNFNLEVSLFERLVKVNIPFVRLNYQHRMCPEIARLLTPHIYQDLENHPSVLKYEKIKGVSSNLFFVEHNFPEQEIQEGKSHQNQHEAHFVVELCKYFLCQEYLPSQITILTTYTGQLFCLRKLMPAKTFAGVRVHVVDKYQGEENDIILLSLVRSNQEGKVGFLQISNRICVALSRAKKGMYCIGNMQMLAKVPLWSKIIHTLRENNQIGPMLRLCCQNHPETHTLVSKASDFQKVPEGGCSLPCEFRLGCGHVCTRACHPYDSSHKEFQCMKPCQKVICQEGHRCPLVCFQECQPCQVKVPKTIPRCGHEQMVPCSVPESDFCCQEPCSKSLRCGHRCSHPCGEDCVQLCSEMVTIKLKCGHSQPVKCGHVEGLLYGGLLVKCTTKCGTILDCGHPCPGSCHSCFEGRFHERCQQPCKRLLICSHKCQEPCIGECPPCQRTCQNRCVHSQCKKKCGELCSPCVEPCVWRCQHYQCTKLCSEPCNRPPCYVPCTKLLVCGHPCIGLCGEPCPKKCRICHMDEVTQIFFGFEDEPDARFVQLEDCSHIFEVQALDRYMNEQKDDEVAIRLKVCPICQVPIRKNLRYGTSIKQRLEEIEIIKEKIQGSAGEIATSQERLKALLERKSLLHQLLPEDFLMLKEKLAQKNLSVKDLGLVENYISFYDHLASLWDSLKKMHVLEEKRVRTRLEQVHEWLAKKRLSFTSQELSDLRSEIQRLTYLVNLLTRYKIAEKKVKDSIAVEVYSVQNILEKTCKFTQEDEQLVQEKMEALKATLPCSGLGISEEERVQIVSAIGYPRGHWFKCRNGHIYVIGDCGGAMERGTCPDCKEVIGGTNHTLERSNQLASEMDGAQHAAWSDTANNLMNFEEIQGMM

How the values were obtained:
Halo-TMEM55B R151E = Halo-TMEM55B R151E (UniProt Q86T03); experiment: affinity purification with mass spectrometry; Halo-TMEM55B WT or R151E on HaloLink resin from transfected cells with Rab8A Q67L and LRRK2 Y1699C (or Y1699C D2017A); DIA-MS
Halo-TMEM55B = Halo-TMEM55B (UniProt Q86T03); experiment: as above

binding (Halo-TMEM55B R151E)	binding (Halo-TMEM55B)	Substance
no binding	binds	ACBD3 (from UniProt Q9H3P7 1-528)
	binds	OCRL (in HEK293 lysate) (from UniProt Q01968 1-901)
no binding	binds	RNF213 (from UniProt Q63HN8 1-5207)
no binding	binds	ZNFX1 (from UniProt Q9P2E3 1-1918)

No constants are given. Whether binding was seen depends on the method and setting. Binding seen in cells or lysates may run through a third protein. Here binding means that the protein was enriched with, or labelled near, the bait; the list need not be complete. For some of these results: A no says only that the protein was not detected with the bait.
